# No constants are given. Whether binding was seen depends on the method and setting. Some binding calls cover weakened binding; strength is not graded here.
# Amino acid sequences for entries named in this document (tags omitted). Residues count along the entry.
# cholera toxin A1 subunit (CTA1), reduced, free (P01555, residues 19-212): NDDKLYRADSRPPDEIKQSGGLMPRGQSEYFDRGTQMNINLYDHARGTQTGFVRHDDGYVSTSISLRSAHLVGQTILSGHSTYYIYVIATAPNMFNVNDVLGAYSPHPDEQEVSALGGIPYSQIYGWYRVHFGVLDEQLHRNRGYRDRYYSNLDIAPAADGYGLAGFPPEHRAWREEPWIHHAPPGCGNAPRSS
# cholera toxin A2 subunit (CTA2) (P01555, residues 213-258): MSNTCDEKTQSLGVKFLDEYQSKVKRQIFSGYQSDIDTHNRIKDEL
# UniProt P01556, residues 22-124: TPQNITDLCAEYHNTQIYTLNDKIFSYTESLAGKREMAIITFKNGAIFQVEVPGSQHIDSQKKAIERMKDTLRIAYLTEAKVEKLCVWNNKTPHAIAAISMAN
# UniProt P07237, residues 18-508: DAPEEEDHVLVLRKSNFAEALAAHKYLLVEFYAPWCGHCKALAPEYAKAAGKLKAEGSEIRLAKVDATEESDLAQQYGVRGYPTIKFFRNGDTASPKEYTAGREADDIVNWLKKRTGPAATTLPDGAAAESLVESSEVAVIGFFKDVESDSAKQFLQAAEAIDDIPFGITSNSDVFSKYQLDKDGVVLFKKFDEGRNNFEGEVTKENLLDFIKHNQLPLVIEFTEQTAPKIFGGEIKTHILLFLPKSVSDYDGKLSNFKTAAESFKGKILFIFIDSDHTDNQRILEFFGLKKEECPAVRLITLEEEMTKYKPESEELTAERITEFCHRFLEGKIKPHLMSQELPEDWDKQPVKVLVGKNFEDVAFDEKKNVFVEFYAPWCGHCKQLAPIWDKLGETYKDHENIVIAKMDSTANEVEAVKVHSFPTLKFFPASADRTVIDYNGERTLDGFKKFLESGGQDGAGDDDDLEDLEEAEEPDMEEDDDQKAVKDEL
# Tests used:
# Assay in all cases: SPR; both purified
# CTA2/CTB5 complex = CTA2/CTB5 complex (UniProt P01555)
# [1] = target: reconstituted cholera toxin holotoxin (CTA1 re-associated with CTA2/CTB5) (UniProt P01555)
# [2] = target: cholera toxin B subunit pentamer (CTB5) (UniProt P01556)
substance,measurement,setting,value
"cholera toxin A1 subunit (CTA1), reduced, free (from UniProt P01555 19-212) (enzyme)",binding,CTA2/CTB5 complex,binds
"protein disulfide isomerase (PDI), reduced (from UniProt P07237 18-508) (enzyme)",binding,[1],binds
cholera toxin A2 subunit (CTA2) (from UniProt P01555 213-258) (peptide),binding,[2],binds

# From publication PMC4516936 (Toxins, 2015)
